{"sequences": {"note": "The chains behind the UniProt entries cited, without tags or fusion partners. Where a name states a change or a piece, a line headed by the entry shows the natural chain unless it says otherwise.", "UniProt P04839": "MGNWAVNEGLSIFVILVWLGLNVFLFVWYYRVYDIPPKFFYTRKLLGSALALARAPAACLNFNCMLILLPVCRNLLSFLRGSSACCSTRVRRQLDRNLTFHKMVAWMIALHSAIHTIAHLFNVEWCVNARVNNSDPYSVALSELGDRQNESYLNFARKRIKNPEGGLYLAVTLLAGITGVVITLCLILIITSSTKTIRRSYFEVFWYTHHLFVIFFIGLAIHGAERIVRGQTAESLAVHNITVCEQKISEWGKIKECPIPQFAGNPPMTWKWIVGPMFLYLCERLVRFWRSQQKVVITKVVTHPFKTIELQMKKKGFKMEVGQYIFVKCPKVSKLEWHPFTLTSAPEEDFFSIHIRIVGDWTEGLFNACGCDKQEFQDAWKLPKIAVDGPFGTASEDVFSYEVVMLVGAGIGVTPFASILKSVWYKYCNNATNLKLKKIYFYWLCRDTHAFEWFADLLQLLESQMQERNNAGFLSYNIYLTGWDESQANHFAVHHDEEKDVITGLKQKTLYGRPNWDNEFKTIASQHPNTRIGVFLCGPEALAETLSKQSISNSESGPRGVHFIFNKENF"}, "source": "paper PMC4316792", "about": "“The dehydrogenase region of the NADPH oxidase component Nox2 acts as a protein disulfide isomerase (PDI) resembling PDIA3 with a role in the binding of the activator protein p67^phox” (Frontiers in Chemistry, 2015)", "key": {"[1]": {"target": "T1, p67^phox(1–526) (UniProt P19878 1-526)", "T1 construct": "construct as in Mizrahi et al., 2010; also called full-length p67^phox; 6His-p67^phox; source: E. coli, purified (Nickel Sepharose); not shown: 6His, N-terminal, kept", "T1 sequence (looked up)": "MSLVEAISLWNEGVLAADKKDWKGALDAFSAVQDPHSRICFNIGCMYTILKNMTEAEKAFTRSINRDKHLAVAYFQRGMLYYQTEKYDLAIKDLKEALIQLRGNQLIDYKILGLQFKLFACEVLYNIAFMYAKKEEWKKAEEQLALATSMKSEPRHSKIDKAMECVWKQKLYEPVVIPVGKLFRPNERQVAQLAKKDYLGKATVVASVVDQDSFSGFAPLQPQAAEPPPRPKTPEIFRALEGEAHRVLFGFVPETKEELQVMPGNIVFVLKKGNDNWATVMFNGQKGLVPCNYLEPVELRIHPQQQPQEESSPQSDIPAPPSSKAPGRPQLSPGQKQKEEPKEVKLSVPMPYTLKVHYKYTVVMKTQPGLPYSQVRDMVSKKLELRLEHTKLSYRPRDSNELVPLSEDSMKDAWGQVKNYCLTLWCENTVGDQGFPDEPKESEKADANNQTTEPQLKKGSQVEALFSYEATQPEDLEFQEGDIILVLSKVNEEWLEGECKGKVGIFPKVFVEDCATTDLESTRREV", "assay": "ELISA; protein—protein binding assay: p67^phox (0.5 μM in PBS) attached to 96-well plates 16–18 h at 4°C; NusA-Nox2 or NusA 0.5 μM in PBS with 0.1% Tween 20 and 1% casein, 1 h at room temperature; detected by anti-NusA antibody and peroxidase-conjugated anti-mouse IgG, mAbs at 650 nm per min; both …"}, "[2]": {"target": "T2, p67^phox(1–212) (UniProt P19878 1-212)", "T2 construct": "contains four cysteines (40, 45, 121, 165); source: E. coli, purified (Nickel Sepharose); not shown: 6His, N-terminal, kept", "T2 sequence (looked up)": "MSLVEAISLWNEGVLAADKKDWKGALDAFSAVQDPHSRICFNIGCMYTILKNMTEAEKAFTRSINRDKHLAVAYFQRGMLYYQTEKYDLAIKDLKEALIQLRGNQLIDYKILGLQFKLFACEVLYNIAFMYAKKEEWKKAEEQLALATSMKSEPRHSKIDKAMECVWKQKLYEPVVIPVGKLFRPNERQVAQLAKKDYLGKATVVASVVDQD", "assay": "ELISA; protein—protein binding assay: p67^phox (0.5 μM in PBS) attached to 96-well plates 16–18 h at 4°C; NusA-Nox2 or NusA 0.5 μM in PBS with 0.1% Tween 20 and 1% casein, 1 h at room temperature; detected by anti-NusA antibody and peroxidase-conjugated anti-mouse IgG, mAbs at 650 nm per min; both …"}}, "note": "These are yes or no findings as the source states them, for the method shown. Binding can be weak; no strength is given.", "data": [{"substance": "NusA-Nox2(328–570) (from UniProt P04839) (domain or fragment)", "values": [{"measurement": "binding", "setting": "[1]", "value": "binds"}, {"measurement": "binding", "setting": "[2]", "value": "binds"}]}, {"substance": "NusA-Nox2(357–570) (from UniProt P04839) (domain or fragment)", "values": [{"measurement": "binding", "setting": "[1]", "value": "binds"}, {"measurement": "binding", "setting": "[2]", "value": "binds"}]}, {"substance": "NusA-Nox2(372–570) (from UniProt P04839) (domain or fragment)", "values": [{"measurement": "binding", "setting": "[1]", "value": "no binding (tested: 0.5 μM)"}, {"measurement": "binding", "setting": "[2]", "value": "no binding (tested: 0.5 μM)"}]}, {"substance": "NusA-Nox2(387–570) (from UniProt P04839) (domain or fragment)", "values": [{"measurement": "binding", "setting": "[1]", "value": "no binding (tested: 0.5 μM)"}, {"measurement": "binding", "setting": "[2]", "value": "no binding (tested: 0.5 μM)"}]}, {"substance": "NusA-Nox2(408–570) (from UniProt P04839) (domain or fragment)", "values": [{"measurement": "binding", "setting": "[1]", "value": "no binding (tested: 0.5 μM)"}, {"measurement": "binding", "setting": "[2]", "value": "no binding (tested: 0.5 μM)"}]}, {"substance": "NusA-Nox2(444–570) (from UniProt P04839) (domain or fragment)", "values": [{"measurement": "binding", "setting": "[1]", "value": "no binding (tested: 0.5 μM)"}, {"measurement": "binding", "setting": "[2]", "value": "no binding (tested: 0.5 μM)"}]}, {"substance": "NusA-Nox2(462–570) (from UniProt P04839) (domain or fragment)", "values": [{"measurement": "binding", "setting": "[1]", "value": "no binding (tested: 0.5 μM)"}, {"measurement": "binding", "setting": "[2]", "value": "no binding (tested: 0.5 μM)"}]}]}
